This is an account of results in PubChem BioAssay AID2685 (National Center for Advancing Translational Sciences (NCATS), 2010).

What is called AC50 is the concentration at which the activity in the assay is half-maximal. Lower therefore signals greater potency.

The experiment is described as follows: qHTS Assay for Lipid Storage Modulators in Drosophila S3 Cells.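 As to cell number change: cells counted by Cell Tracker Red CMTPX staining in the red channel.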 The settings on record: BODIPY lipid droplet fluorescence, 18-24 h; for cell number change: measured here: cell count max response, cells fed with added oleic acid. The procedure, abridged: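 Laser-scanning cytometry quantifies lipid droplet accumulation (500–530 nm total intensity; droplet/cell object ratio) in oleic acid-fed (400 uM added) Drosophila S3 cells treated with a concentration series. 20 uM Triacsin C defined 100% inhibition.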

Setting [1] is: measured here: lipid fluorescence (Fed channel) AC50, cells fed with added oleic acid.
[2] abbreviates: measured here: cell number channel AC50, cells fed with added oleic acid.

This is one part of the list. These are further read-outs of the screen, such as a control signal, another cell line or another target. No call is given for them. Compounds called inactive in the main read-out are mostly missing here. Potencies come from curve fits of mixed quality, noted in brackets.

As for `Cc1ccc(-n2nc3cc(Cl)c(NC(=O)c4ccco4)cc3n2)cc1`, the cell number change was determined as 12.1%. The AC50 under setting [1] was 6.51 µM [rising, partial curve, poor fit].
`CC(c1ccco1)N(C(=O)COc1ccc(Cl)cc1)c1ccccn1` (configuration not stated): the cell number change was 6.25%.
`CC1CCCCN1CC(=O)c1c(N)n(Cc2ccccc2)c(=O)n(C)c1=O` (configuration not stated): the cell number change was -49.5%. Besides, the half-maximal activity concentration (AC50) under setting [2] is 6.51 µM [rising, single point]. Further, the AC50 under setting [1] was 1.46 µM [falling, partial curve].
As to `O=C(NCCc1ccccc1F)C1CC(O)CN1C(=O)Nc1ccccc1` (configuration not stated), the cell number change was found to be 14%. Further, the AC50 under setting [1] is 29.1 µM [rising, single point].
As to `N=C1C(c2ccccc2)=C(O)CN1c1cccc(S(=O)(=O)Nc2cccc(C(F)(F)F)c2)c1`, the cell number change was 44.1%. Moreover, under setting [2], the concentration at half-maximal activity (AC50) is 0.92 µM [rising, full curve]. Besides, under setting [1], the concentration at half-maximal activity (AC50) is 0.731 µM [rising, partial curve, poor fit].
For `CC(C)CCn1c(N)c(S(=O)(=O)c2cccs2)c2nc3ccccc3nc21`, the cell number change is -129%. For the same compound, the AC50 under setting [2] is 29.1 µM [falling, single point]. Besides, the AC50 under setting [1] is 29.1 µM [falling, single point].
With `CCOC(=O)C1=C(C)NC(=O)NC1c1ccc(N(C)C)cc1` (configuration not stated), the cell number change is -8.82%. Also, the AC50 under setting [2] is 6.51 µM [falling, single point]. Besides, under setting [1], the AC50 is 6.51 µM [falling, single point].
Take `COc1cccc(/C=C/C(=O)NCc2ccc(S(N)(=O)=O)cc2)c1`: the cell number change came out at 18.9%. Also, under setting [1], the concentration at half-maximal activity (AC50) is 3.66 µM [falling, single point].
For the compound `CCOc1c(/C=C(\C#N)C(N)=O)c2ccccc2n1CC`, the cell number change was 24.1%. Also, the AC50 under setting [2] is 4.61 µM [rising, full curve, poor fit]. In addition, under setting [1], the AC50 is 3.66 µM [falling, single point].
Consider `COC(=O)C1=C(C)Nc2nnnn2C1c1ccc(Cl)cc1Cl` (configuration not stated), for which the concentration at half-maximal activity (AC50) under setting [2] was 6.51 µM [rising, single point].
In the case of `CCOC(=O)c1cccc(N2C(=O)C3C(C2=O)C2C=CC3C23CC3)c1` (configuration not stated), the cell number change is 16.9%. Moreover, the concentration at half-maximal activity (AC50) under setting [1] is 13 µM [falling, partial curve].
Consider `COc1cc(CNCc2ccccc2)cc(Cl)c1OC`, for which the cell number change is -17.8%. Besides, the AC50 under setting [1] was 29.1 µM [falling, single point].
Take `CCOC(=O)CNC(=S)N(CCCN1CCN(C)CC1)Cc1cccs1`: the cell number change came to 51.1%. Under setting [2], the concentration at half-maximal activity (AC50) is 29.1 µM [rising, single point]. For the same compound, under setting [1], the AC50 was 6.51 µM [rising, single point].
Consider `Cc1cc(CN2CCCC(C(=O)Nc3cccc(-n4cccn4)c3)C2)cc(C)c1O` (configuration not stated), for which the cell number change turned out to be 5.61%. For the same compound, under setting [2], the half-maximal activity concentration (AC50) was 6.51 µM [rising, single point].
Take `CC(=O)c1ccc(N2CCN(c3ccc(S(=O)(=O)NCCCN(C)C)cc3[N+](=O)[O-])CC2)cc1`: the cell number change was -41.5%. Also, the AC50 under setting [1] was 23.1 µM [falling, partial curve].
On to `O=C(Oc1ccccc1C(=O)Oc1ccccc1)c1ccco1`, for which the half-maximal activity concentration (AC50) under setting [1] is 6.51 µM [rising, single point].
On the same count and under the same terms, with `CCCn1ncc(CN2CCC(Oc3ccc(C(=O)N4CCCC4)cc3)CC2)c1C` the figure was 0.731 µM [rising, single point].
Consider `Cc1cccc(OCC(=O)NCC(c2cccs2)N2CCOCC2)c1` (configuration not stated), for which the AC50 was 0.103 µM [falling, full curve, poor fit] under setting [2] and 6.51 µM [falling, single point] under setting [1].
Take `Cc1ccc(CNS(=O)(=O)c2ccc(F)c(F)c2)n1C`: the cell number change was found to be 1.32%.
The same measure, in the same setting: with `O=C(CN1C(=O)c2ccccc2S1(=O)=O)NCc1c(F)cccc1F` the figure was -29.3%.
Same read-out and setting: then `CCOC(=O)C1CCN(C(=O)COC(=O)c2cc([N+](=O)[O-])ccc2N2CCOCC2)CC1`, with 1.68%.
In the case of `O=C1C(Cl)=C(NC(=O)c2ccccc2)C(=O)C(Cl)=C1NC(=O)c1ccccc1`, the cell number change was -65.6%. For the same compound, the concentration at half-maximal activity (AC50) under setting [2] is 2.31 µM [falling, full curve]. In addition, under setting [1], the AC50 is 2.06 µM [falling, full curve].
For `COc1ccccc1N1CCN(S(=O)(=O)c2c(C)[nH]c(=O)[nH]c2=O)CC1`, the AC50 under setting [1] is 0.164 µM [rising, full curve, poor fit].
Take `COc1ccc(C=O)cc1CN1C(=O)c2ccccc2C1=O`: the cell number change was 19.3%. Also, the AC50 under setting [1] is 0.58 µM [rising, single point].
Take `CCN1CCN(C(=O)c2cc(-c3cccnc3)nc3ccc(Br)cc23)CC1`: the cell number change was -5.68%.
Turning to `O=C1CC(N2CCOCC2)C(=O)N1CCN1C(=O)CC(N2CCOCC2)C1=O` (configuration not stated), the cell number change was -7.63%.
As to `COC(=O)c1c(C(=O)OC)c(-c2ccc(Cl)c(Cl)c2)n2c1CCC2`, the cell number change is -11.6%. In addition, the concentration at half-maximal activity (AC50) under setting [2] was 3.66 µM [falling, partial curve, poor fit].
In the case of `O=C(NC(=S)Nc1cccnc1Cl)c1ccco1`, the cell number change was -1.17%. Besides, under setting [2], the AC50 is 2.91 µM [rising, partial curve].
For `COCCN(CCOC)S(=O)(=O)c1ccc(C(=O)Nc2nnc(COC)o2)cc1`, the cell number change is -35.4%. For the same compound, the AC50 under setting [2] was 1.64 µM [falling, full curve, poor fit]. The AC50 under setting [1] was 0.116 µM [falling, partial curve, poor fit].
In the case of `Cc1ccc(Nc2nc3c([nH]2)c(=O)[nH]c(=O)n3C)cc1`, the half-maximal activity concentration (AC50) under setting [1] is 4.11 µM [rising, single point].
On to `CC(Sc1nnc(N)s1)C(=O)NC1CCCCC1C` (configuration not stated), for which the cell number change amounted to 30.6%. In addition, the AC50 under setting [2] was 18.4 µM [rising, single point].
Take `Cc1nnn(C23CC4CC(CC(CC(=O)Nc5cccc(F)c5)(C4)C2)C3)n1`: the cell number change amounted to 49.4%. Moreover, the AC50 under setting [2] is 6.51 µM [rising, single point]. In addition, the half-maximal activity concentration (AC50) under setting [1] is 6.51 µM [rising, single point].
In the case of `Cc1ccc(N2C(=O)CC(n3ccnc3)C2=O)cc1C` (configuration not stated), the cell number change is 42.8%. The half-maximal activity concentration (AC50) under setting [2] is 29.1 µM [rising, single point].
As to `Cc1oc2c(C)c3oc(=O)c4c(c3cc2c1C)CCCC4`, the cell number change is -2.56%. In addition, the AC50 under setting [1] is 5.17 µM [rising, full curve].
For `O=C(CSCc1ccc(F)cc1)N1CCN(c2ccccc2)CC1`, the cell number change was determined as 10.9%. Moreover, the AC50 under setting [1] was 0.82 µM [rising, full curve, poor fit].
Regarding `Cc1csc(SCC(=O)c2cc(C)n(Cc3cccs3)c2C)n1`, the cell number change was -25.5%. Further, the AC50 under setting [1] was 32.6 µM [falling, single point].
As for `Cc1cc(NC(=O)C(C)SCC(=O)Nc2ccccc2N2CCCCC2)no1` (configuration not stated), the cell number change came out at 6.5%.
As for `NC(=O)C(=O)N/N=C1\CCc2ccccc21`, the AC50 under setting [2] is 0.651 µM [rising, single point].
